Assay [1] deals with T1, DivIVABs (Bacillus subtilis) (UniProt P71021).
T1 sequence: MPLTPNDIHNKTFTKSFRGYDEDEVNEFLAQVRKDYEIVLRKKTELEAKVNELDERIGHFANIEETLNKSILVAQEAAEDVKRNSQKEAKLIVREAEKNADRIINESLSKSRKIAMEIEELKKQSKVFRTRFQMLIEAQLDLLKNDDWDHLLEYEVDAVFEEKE
As to the kind of experiment: two-hybrid; bacterial two-hybrid (B2H); paper in preparation, no details.

In assay [2] the target is T1, DivIVABs (Bacillus subtilis). Nature of the assay: pull-down; GST pull-down; paper in preparation, no details.

Results are given in words; binding and its absence hold for the method and conditions named. For some assays here: In cells and extracts the contact can be indirect. Some binding calls cover weakened binding; strength is not graded here. Tags and fused reporters may be left off the sequences shown.

B1: CcpN (control catabolite protein of gluconeogenic genes) (protein, UniProt O34994 1-212)
chain: MSTIELNKRQEHILQIVKENGPITGEHIAEKLNLTRATLRPDLAILTMSGFLEARPRVGYFYTGKTGTQLLADKLKKLQVKDFQSIPVVIHENVSVYDAICTMFLEDVGTLFVVDRDAVLVGVLSRKDLLRASIGQQELTSVPVHIIMTRMPNITVCRREDYVMDIAKHLIEKQIDALPVIKDTDKGFEVIGRVTKTNMTKILVSLSENEIL
Regarding B1, the binding result in assay [1] and in assay [2] was “binds” throughout.

Values taken from article PMC7028823, “EF1025, a Hypothetical Protein From Enterococcus faecalis, Interacts With DivIVA and Affects Cell Length and Cell Shape” (Frontiers in Microbiology, 2020).
